PubChem BioAssay AID1224830 | NIAID – 2016
The deposit covers about 18,000 reagents; this is a random part of them. About 2,900 of all reagents (16%) count as active. 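Calls are made per well; low scores hint the gene aids the LPS response, high scores that it dampens it.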 Repeated entries: four replicate wells of each siRNA pool.

Purpose: 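Regulators of TLR4 signalling towards TNF-alpha in macrophage-like cells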 (primary screen)
Cells: human THP-1 monocytic leukaemia cells, TNF dual-luciferase reporter clone, PMA-differentiated to macrophage-like cells
Reagent: siRNA pool against human genes, 50 nM
Duration: LPS for 4 h, given about 3 days after siRNA transfection
Conditions: bacterial LPS (TLR4 ligand), 10 ng/ml
Measured: 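Ratio of firefly to renilla light, scaled to the plate median and expressed as a robust z-score per replicate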
Reading the numbers: TNF reporter robust z-score: higher = stronger TNF reporter response to LPS
Hit rule: 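a well is active when its z-score exceeds 2.8 or falls below -1.5; control wells carry no call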

The first 6 entries, to show the layout:
gene knocked down | PubChem SID | TNF reporter robust z-score | Outcome
ILF3 | SID315449495 | 0.64 | inactive
ILF3 | SID315449495 | 2.96 | active
ILF3 | SID315449495 | 1.86 | inactive
ILF3 | SID315449495 | 0.81 | inactive
IFNB1 | SID315449422 | -0.67 | inactive
IFNB1 | SID315449422 | -0.7 | inactive

Main list, from the start:
gene knocked down | PubChem SID | TNF reporter robust z-score | Outcome
ILF3 | SID315449495 | 0.64 | inactive
ILF3 | SID315449495 | 2.96 | active
ILF3 | SID315449495 | 1.86 | inactive
ILF3 | SID315449495 | 0.81 | inactive
IFNB1 | SID315449422 | -0.67 | inactive
IFNB1 | SID315449422 | -0.7 | inactive
IFNB1 | SID315449422 | -1.37 | inactive
IFNB1 | SID315449422 | -0.24 | inactive
PHGDH | SID315455720 | 0.37 | inactive
PHGDH | SID315455720 | 1.93 | inactive
PHGDH | SID315455720 | 0.91 | inactive
PHGDH | SID315455720 | 0.65 | inactive
VPS25 | SID315460322 | 2.43 | inactive
VPS25 | SID315460322 | 4.78 | active
VPS25 | SID315460322 | 2.8 | active
VPS25 | SID315460322 | 3.24 | active
SPRYD4 | SID315463666 | -0.77 | inactive
SPRYD4 | SID315463666 | -1.41 | inactive
SPRYD4 | SID315463666 | -0.37 | inactive
SPRYD4 | SID315463666 | -0.42 | inactive
DNMT3B | SID315448351 | -0.45 | inactive
DNMT3B | SID315448351 | -0.31 | inactive
DNMT3B | SID315448351 | -0.33 | inactive
DNMT3B | SID315448351 | 0.26 | inactive
HCAR1 | SID315455973 | 0.55 | inactive
HCAR1 | SID315455973 | 0.11 | inactive
HCAR1 | SID315455973 | 1.47 | inactive
HCAR1 | SID315455973 | 1.19 | inactive
LANCL1 | SID315453998 | -0.26 | inactive
LANCL1 | SID315453998 | 0 | inactive
LANCL1 | SID315453998 | -0.32 | inactive
LANCL1 | SID315453998 | -0.05 | inactive
SLCO1B1 | SID315454223 | -0.07 | inactive
SLCO1B1 | SID315454223 | 0.17 | inactive
SLCO1B1 | SID315454223 | -0.47 | inactive
SLCO1B1 | SID315454223 | 0.21 | inactive
SLC39A13 | SID315460894 | -0.12 | inactive
SLC39A13 | SID315460894 | -0.63 | inactive
SLC39A13 | SID315460894 | -0.65 | inactive
SLC39A13 | SID315460894 | -1.39 | inactive
MMRN2 | SID315459478 | -0.36 | inactive
MMRN2 | SID315459478 | -0.21 | inactive
MMRN2 | SID315459478 | -0.25 | inactive
MMRN2 | SID315459478 | 0.09 | inactive
CCDC91 | SID315457575 | 0.93 | inactive
CCDC91 | SID315457575 | 0.74 | inactive
CCDC91 | SID315457575 | 0.77 | inactive
CCDC91 | SID315457575 | -0.42 | inactive
